# From article PMC7819943, “Rice protein-binding microarrays: a tool to detect cis-acting elements near promoter regions in rice”
# By UniProt entry, the sequences of proteins in these tests, tags left out.
# UniProt Q0JBA9, entry or part of it: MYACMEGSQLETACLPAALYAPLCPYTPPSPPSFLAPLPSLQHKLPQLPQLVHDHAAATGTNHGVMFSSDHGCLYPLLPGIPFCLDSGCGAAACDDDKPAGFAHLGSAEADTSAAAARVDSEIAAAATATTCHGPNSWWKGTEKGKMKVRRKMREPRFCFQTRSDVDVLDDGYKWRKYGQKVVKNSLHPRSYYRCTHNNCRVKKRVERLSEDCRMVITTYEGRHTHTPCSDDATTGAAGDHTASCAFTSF
# This is one part of the list.
# Molecular target: OsWRKY34 (Oryza sativa, UniProt Q0JBA9 1-250)
# Test: protein-binding microarray (RPBM); PBS, 2% BSA, 51.3 ng/ul salmon testes DNA, 50 uM zinc acetate, 200 nM TF, 25 C, 1 h; high values mean tight binding
# Conditions: protein: recombinant; tags: N-terminal polyhistidine and DsRed monomer fusion (pET32a); label: CyDye5-dUTP incorporated in the synthesized complementary strand; 3' TTTTT single-stranded linker to array surface; dsDNA, one strand shown
# How it was run: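 In PBS with 2% BSA, salmon testes DNA and 50 µM zinc acetate, 200 nM protein was incubated on a custom Agilent array at 25 °C for 1 h and then washed off. The array had been made double-stranded by primer extension with Cy5-dUTP and blocked with 2% BSA. The proteins were transcription factors fused N-terminally to polyhistidine and DsRed, expressed in E. coli BL21-CodonPlus and purified on Ni–NTA. The binding signal is per-feature fluorescence intensity (arbitrary units) from an Axon 4000B scanner.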
row,Sequence,binding signal
1,ACAACTGACTTACCCTTTCTGACTTGCAGATCAATTTGTCCGGAGTCACCTAGTGCAG,9050 fluorescence intensity (a.u.)
2,AGCACTTCTTTCTATGCTTTTTGCAAGCATTCGTGTATCTCGGAGTCACCTAGTGCAG,10700 fluorescence intensity (a.u.)
3,GCGCAAACGCTCGAATTTTTGGTTTTGATCCATATGCATACGGAGTCACCTAGTGCAG,8580 fluorescence intensity (a.u.)
4,CTTCTCCTTGCTTCTCCGTAACCTCGCGCTTTCTTGGCCGCGGAGTCACCTAGTGCAG,8890 fluorescence intensity (a.u.)
5,ACGGCGAGACGGTTTGCGGCGGCGGCGGTGGGGTTGGGATCGGAGTCACCTAGTGCAG,10600 fluorescence intensity (a.u.)
6,TACCGTTGACTTTGGACAAAATTTACTCAAACAGTAGCAACGGAGTCACCTAGTGCAG,12700 fluorescence intensity (a.u.)
7,ACATCTGTACAAACAAGCCACGCCGTCTCCTGTTGGAATTCGGAGTCACCTAGTGCAG,8730 fluorescence intensity (a.u.)
8,AATTTCGGTCTCGGTCTTCGGTCTTTCGGTTTTTTCGGTCCGGAGTCACCTAGTGCAG,11800 fluorescence intensity (a.u.)
9,GATGGCGTACCAAAGTACTGGTAAAAACATCTTCAGTTTTCGGAGTCACCTAGTGCAG,22300 fluorescence intensity (a.u.)
10,AATTTCTTGCTTTACTGCCTATTGTGCTTGTATGGTTCTGCGGAGTCACCTAGTGCAG,10000 fluorescence intensity (a.u.)
11,TACTTCTGACCACTCATACTTAGGTGTACATGCAACGAGGCGGAGTCACCTAGTGCAG,8640 fluorescence intensity (a.u.)
12,TTCCTTATCACATGGGCTCTACATGCCATTGTCACATAAACGGAGTCACCTAGTGCAG,9240 fluorescence intensity (a.u.)
13,TGTAGTACTCCATTTCTCAGCAGTCTTTGTTCCTCATAGTCGGAGTCACCTAGTGCAG,8880 fluorescence intensity (a.u.)
14,GAATCAGGACTTAGCCATCTCACATTTCTCCTGATCTTCACGGAGTCACCTAGTGCAG,14500 fluorescence intensity (a.u.)
15,TTGTTACGAGAGTCCATAGCTTATCCTTATTTCTAACAATCGGAGTCACCTAGTGCAG,8810 fluorescence intensity (a.u.)
16,TCCATGCATTCGTTACACTCGGTCTGTTTTCCTTCGCTCACGGAGTCACCTAGTGCAG,11500 fluorescence intensity (a.u.)
17,CCGTATATTGGTCAACATTGGTTGAATCTATCATAACCATCGGAGTCACCTAGTGCAG,11900 fluorescence intensity (a.u.)
18,TTCGATGACGCGTGCCATTTTTCCTGCAAAGTGTCTTTTTCGGAGTCACCTAGTGCAG,9330 fluorescence intensity (a.u.)
19,CATCTTACTCTAGCTTCTCCATTCCAAAATTCACCACCGCCGGAGTCACCTAGTGCAG,8720 fluorescence intensity (a.u.)
20,TCTTGATTCACAAACGTTTCCCAGCCACACTCGGTCAAATCGGAGTCACCTAGTGCAG,9850 fluorescence intensity (a.u.)
21,ACCGGACACCACCCCATGCCGCGCGGCCGTGCGGCGCCCCCGGAGTCACCTAGTGCAG,8340 fluorescence intensity (a.u.)
22,GCCACTTACACAGTATTTATACCTCATTTACACCCCACTTCGGAGTCACCTAGTGCAG,8400 fluorescence intensity (a.u.)
23,AACCCACCTATCTTGTTTTCCACGTGTACGCTTTTCAAACCGGAGTCACCTAGTGCAG,19200 fluorescence intensity (a.u.)
24,GCAGCACTCACAGCTCGACACGTGTCCCGCATCACGTGTCCGGAGTCACCTAGTGCAG,9190 fluorescence intensity (a.u.)
25,ATTTGTCGTTTTGCATGCCGTATTTAGGCCCTATTTAGTTCGGAGTCACCTAGTGCAG,9760 fluorescence intensity (a.u.)
26,CTCGCACCCGCACCCGTACCAACCCCGACCGAGCGAGCCGCGGAGTCACCTAGTGCAG,8480 fluorescence intensity (a.u.)
27,TTGGGGTTATTTTTCAGATGGGTCCCACCTTATTACCCACCGGAGTCACCTAGTGCAG,9560 fluorescence intensity (a.u.)

# 3 records drawn at random from the list so far, as already listed:
row,Sequence,binding signal
25,ATTTGTCGTTTTGCATGCCGTATTTAGGCCCTATTTAGTTCGGAGTCACCTAGTGCAG,9760 fluorescence intensity (a.u.)
27,TTGGGGTTATTTTTCAGATGGGTCCCACCTTATTACCCACCGGAGTCACCTAGTGCAG,9560 fluorescence intensity (a.u.)
6,TACCGTTGACTTTGGACAAAATTTACTCAAACAGTAGCAACGGAGTCACCTAGTGCAG,12700 fluorescence intensity (a.u.)

# (next part)

row,Sequence,binding signal
1,CCCCAAACACACACACAGCAAGTGGTTTTTCCTCTTGTTTCGGAGTCACCTAGTGCAG,8950 fluorescence intensity (a.u.)
2,ATATATATATATATATATATATATATGCAGCAACAGGGCCCGGAGTCACCTAGTGCAG,17400 fluorescence intensity (a.u.)
3,ACCTTTTTCTTGTTTCTTCCTGTGTTGGGTAATTCGGTTTCGGAGTCACCTAGTGCAG,14100 fluorescence intensity (a.u.)
4,ATTAATATCTGGCTCACCTATCTCTCGTATATTTTTTTTTCGGAGTCACCTAGTGCAG,11000 fluorescence intensity (a.u.)
5,ACTAATCACCTGTCACGATGCCACTACCCGGAAAAAAAAACGGAGTCACCTAGTGCAG,8850 fluorescence intensity (a.u.)
6,GCCTTGTTTAGTTCCCAAAATAAAAATTTTTACGCTGTCACGGAGTCACCTAGTGCAG,10800 fluorescence intensity (a.u.)
7,ACTGCACGGTTAATTTCCTTGTAATTCATACACTACACAACGGAGTCACCTAGTGCAG,9260 fluorescence intensity (a.u.)
8,CACCTAGTACACTCATAATGTTTCACTATGTATAGATTTACGGAGTCACCTAGTGCAG,10000 fluorescence intensity (a.u.)
9,AATCCGCTTACATCCTTAATACTTTCTCCGTCCAGAATATCGGAGTCACCTAGTGCAG,10500 fluorescence intensity (a.u.)
10,GCCAGATCTTCACATCTTCTCTGGACATTTTCCTAGAGGACGGAGTCACCTAGTGCAG,8040 fluorescence intensity (a.u.)
11,ATACCTGCTCGGGCCCGAGACGCTCTGCGTTATCTATGTCCGGAGTCACCTAGTGCAG,8060 fluorescence intensity (a.u.)
12,GGACACCTTCTCACCGGAGGAGCCTTGCCGCGGGGATAATCGGAGTCACCTAGTGCAG,8130 fluorescence intensity (a.u.)
13,CTCCATCTCGCATCTTCTCTTTCTCTTTCTCTTTCTCTTTCGGAGTCACCTAGTGCAG,13300 fluorescence intensity (a.u.)
14,GCACTACCTTCACCATTTTTTTTGATTTTTTTCTTTTTTTCGGAGTCACCTAGTGCAG,8270 fluorescence intensity (a.u.)
15,TTGGTTTCGATCTGGTCGCATCGCACCGCCTCGCCCTACACGGAGTCACCTAGTGCAG,8480 fluorescence intensity (a.u.)
16,GGGTGTCACATCAGACGGTTGACCAGATATCGGAAGGGGTCGGAGTCACCTAGTGCAG,11300 fluorescence intensity (a.u.)
17,CTGAAAATTTTGTTCTAAACCACTACTAGTCGTCTACTACCGGAGTCACCTAGTGCAG,8350 fluorescence intensity (a.u.)
18,AGCCTACCACCCGCCCTTTTCCAGGCCATGTTCGTTACTTCGGAGTCACCTAGTGCAG,8410 fluorescence intensity (a.u.)
19,TTGCAACTTTTAGTTCCTAACTTTTTCTTCAAACTTCCAACGGAGTCACCTAGTGCAG,8060 fluorescence intensity (a.u.)
20,ATTCGCTGGTCTGGACGCCGCCTCCGCCGCCGCCGCCATGCGGAGTCACCTAGTGCAG,9120 fluorescence intensity (a.u.)
21,ATACACCGATTAATGATGGACATCATAGTCTCACTTTTCACGGAGTCACCTAGTGCAG,9010 fluorescence intensity (a.u.)
22,CCCCATCGCTCGATTCCTTTCCATCCCTCGCCTCCGCGCGCGGAGTCACCTAGTGCAG,10400 fluorescence intensity (a.u.)
23,GGCGGCTCGTCGGCGGCGGCGGCGGCGGAGGAGGAGGAGGCGGAGTCACCTAGTGCAG,9150 fluorescence intensity (a.u.)
24,CTTGCCTCGTTGTCACTCACCAACTCTCTTTCTTCTCCATCGGAGTCACCTAGTGCAG,9300 fluorescence intensity (a.u.)
25,CGTTTTTCATATTGCTTTTAGTTTTCTCTTAGTTTGTCCACGGAGTCACCTAGTGCAG,8840 fluorescence intensity (a.u.)
26,CTAATCTGGACCGTCCATCCGCACGCAAGTTTTCTCCACCCGGAGTCACCTAGTGCAG,8090 fluorescence intensity (a.u.)
27,GATGTTCTTGCCTGATATTCTTAATTGTTAGCATATCACACGGAGTCACCTAGTGCAG,9020 fluorescence intensity (a.u.)
